# According to PubChem BioAssay AID330 (DTP/NCI, 2004):
# The list shows only some results of the screen, not a fair sample: it gathers tests that were run many times, whatever their T/C, doses with no T/C, and many T/C values between a quarter and a half above the control. Further doses and runs are listed elsewhere. T/C: endpoint of the treated group in % of that of the vehicle group. Some entries give survivors of the animals treated and no T/C: the source files T/C as zero there, which appears to mark a toxic dose or a test without result, not a measured value. Some doses without a T/C left all or most animals alive at the check, yet need not have been tolerated: the source hardly ever lists a survival T/C far under the control, and the zero likely stands for such cases as well. Counts of survivors are from the toxicity check (mostly the fifth day) where no day follows; animals may have died later. Schedule codes are those of the source, read here as Q, the interval in days (D) or hours (H), X, the number of doses. Some entries were tested several times; their values stand side by side, smallest first. For survival time, the PubChem record calls one and a half times the control and up active, and a quarter to a half above the control has no call in these data; cut-offs in other NCI protocols can differ.
# Test system: P388 leukemia ip, CD2F1 mice, survival T/C
# Assay: NCI In Vivo Anticancer Drug Screen. Data for tumor model P388 Leukemia (intraperitoneal) in CD2F1 (CDF1) mice
# Conditions: T/C endpoint: median survival time, higher T/C = longer survival
# [1] = dose: 200.0 mg/kg/injection, schedule: Q01DX005 (ip), vehicle: saline with Tween-80
smiles,measurement,setting,value
COC(=O)C1OC(SC(=N)N)C(OC(C)=O)C(OC(C)=O)C1OC(C)=O (configuration not stated),survivor count,"dose: 100.0 mg/kg/injection, schedule: Q01DX009 (ip), vehicle: water",4 of 6
same,survivor count,"dose: 200.0 mg/kg/injection, schedule: Q01DX009 (ip), vehicle: water",3 of 6
CCCN1CCc2c([nH]c3cc(OC)ccc23)C1C (configuration not stated),survivor count,[1],0 of 6
CCOC(=O)c1cc2c(nn3c(C)cccc23)n(CC)c1=N,survivor count,"dose: 100.0 mg/kg/injection, schedule: Q01DX001 (ip), vehicle: saline with Tween-80",0 of 6
same,survivor count,"dose: 200.0 mg/kg/injection, schedule: Q01DX001 (ip), vehicle: saline with Tween-80",0 of 6
same,survivor count,"dose: 400.0 mg/kg/injection, schedule: Q01DX001 (ip), vehicle: saline with Tween-80",0 of 6
N#CC(=C1C=CC(=NO)C=C1)c1ccccc1,T/C,"dose: 50.0 mg/kg/injection, schedule: Q01DX009 (ip), vehicle: saline with Tween-80",125 % of control
same,T/C,"dose: 100.0 mg/kg/injection, schedule: Q01DX009 (ip), vehicle: saline with Tween-80",125 % of control
C=C(Cl)C(=NC1CCCCC1)NC(C)(C)C,T/C,"dose: 6.25 mg/kg/injection, schedule: Q01DX005 (ip), vehicle: Klucel (hydroxypropylcellulose) (HPC)",126 and 127 % of control
same,survivor count,"dose: 12.5 mg/kg/injection, schedule: Q01DX005 (ip), vehicle: Klucel (hydroxypropylcellulose) (HPC)",2 of 6
same,survivor count,"dose: 50.0 mg/kg/injection, schedule: Q01DX005 (ip), vehicle: Klucel (hydroxypropylcellulose) (HPC)",0 of 5
same,survivor count,"dose: 100.0 mg/kg/injection, schedule: Q01DX005 (ip), vehicle: Klucel (hydroxypropylcellulose) (HPC)",0 of 5
same,survivor count,"dose: 200.0 mg/kg/injection, schedule: Q01DX005 (ip), vehicle: Klucel (hydroxypropylcellulose) (HPC)",0 of 5
Cc1cc2nc3c(=O)[nH]c(=O)nc-3n(CC=O)c2cc1C,survivor count,"dose: 512.0 mg/kg/injection, schedule: Q01DX009 (ip), vehicle: saline with Tween-80",5 of 6
Cc1cc2c3ccccc3[nH]c(=O)n2n1,survivor count,"dose: 400.0 mg/kg/injection, schedule: Q01DX009 (ip), vehicle: saline with Tween-80",5 of 6
Cn1c(O)c(N=O)c(=O)[nH]c1=O,survivor count,"dose: 200.0 mg/kg/injection, schedule: Q04DX002 (ip), vehicle: saline with Tween-80",2 of 6
same,survivor count,"dose: 400.0 mg/kg/injection, schedule: Q04DX002 (ip), vehicle: saline with Tween-80",0 of 6
Cc1ccccc1-n1c(=S)n(-c2ccc(Cl)cc2)c2nc3ccccc3nc1/c2=N/Nc1cc(Cl)ccc1Cl,survivor count,[1],0 of 6
CCN1/C(=C/C=C/C=C\C=C\c2sc3ccc4ccccc4c3[n+]2CC)Sc2ccc3ccccc3c21,T/C,"dose: 3.12 mg/kg/injection, schedule: Q04DX002 (ip), vehicle: saline with Tween-80",138 % of control
same,T/C,"dose: 25.0 mg/kg/injection, schedule: Q04DX002 (ip), vehicle: saline with Tween-80",125 % of control
same,survivor count,"dose: 50.0 mg/kg/injection, schedule: Q04DX002 (ip), vehicle: saline with Tween-80",0 of 6 and 2 of 6
COc1ccc2c(NCCCCCCCCNc3c4ccc(OC)cc4nc4c(OC)cccc34)c3cccc(OC)c3nc2c1,T/C,"dose: 1.25 mg/kg/injection, schedule: Q01DX009 (ip), vehicle: other",148 % of control
same,survivor count,"dose: 10.0 mg/kg/injection, schedule: Q01DX009 (ip), vehicle: other",6 of 6
same,survivor count,"dose: 20.0 mg/kg/injection, schedule: Q01DX009 (ip), vehicle: other",2 of 6
C[N+]12CCCCC1CC2 (configuration not stated),survivor count,"dose: 50.0 mg/kg/injection, schedule: Q01DX009 (ip), vehicle: saline",0 of 6
same,survivor count,"dose: 100.0 mg/kg/injection, schedule: Q01DX009 (ip), vehicle: saline",0 of 6
same,survivor count,"dose: 200.0 mg/kg/injection, schedule: Q01DX009 (ip), vehicle: saline",0 of 6
